# From the supplement of paper PMC9135407
# Where “and” joins values, the source holds several entries; their conditions need not be identical. Equal values may be shown once. Where a name gives a salt, the structure may show the parent alone. ± gives the standard deviation of the averaged measurements. This is one part of the list. Baselines shift from plate to plate; read single values as rough.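 Primary human stellate myofibroblasts activated in culture; inactivation shown by regained lipid droplets. Readout: fraction of Hoechst-counted cells exceeding a per-plate Bodipy threshold, duplicate wells, each plate with DMSO negative and nortriptyline positive controls. Hits: control-normalized score beyond the plate's top-tenth-percentile nortriptyline wells, or among its three best wells. Final well concentrations unstated.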
# Tested on: primary human hepatic stellate cells (donor 1)
# Experiment: percent Bodipy-positive cells; higher = more lipid droplet accumulation
# Settings: 48 h
# [1] = library stock concentration: 10 mM
# [2] = library stock concentration: 1 mM
# [3] = library stock concentration: 3.33 mM
# [4] = library stock concentration: 80 uM
# [5] = library stock concentration: 400 uM
# [6] = library stock concentration: 2 mM
compound,measurement,setting,value
C[C@]1(Cn2ccnn2)[C@H](C(=O)O)N2C(=O)C[C@H]2S1(=O)=O,percent Bodipy-positive cells,[1],38.1 ± 2.2%
CC(=O)OCC(=O)[C@@]1(OC(C)=O)[C@@H](C)C[C@H]2[C@@H]3C[C@H](F)C4=CC(=O)C=C[C@]4(C)[C@@]3(F)[C@@H](O)C[C@@]21C [Diflorasone diacetate],percent Bodipy-positive cells,library stock concentration: 4 mM,1.86 ± 1.6%
CC(=O)OCC(=O)[C@@]1(OC(C)=O)[C@@H](C)C[C@H]2[C@@H]3C[C@H](F)C4=CC(=O)C=C[C@]4(C)[C@@]3(F)[C@@H](O)C[C@@]21C [Diflorasone Diacetate],percent Bodipy-positive cells,,25.6 ± 9.9%
O=C(NCCN1CCCCC1)c1ccc(I)cc1 [N-[2-(Piperidinylamino)ethyl]-4-iodobenzamide],percent Bodipy-positive cells,[1],32.1 ± 2.5%
CC1=C(/C=C/C(=C/C=C/C(C)=C/C(=O)O)c2ccc(C)cc2)C(C)(C)CCC1,percent Bodipy-positive cells,[1],8.51 ± 2.6%
CC1=C(/C=C/C(C)=C\C=C\C(C)=C\C(=O)O)C(C)(C)CCC1 [9-cis Retinoic acid],percent Bodipy-positive cells,[2],11.6 ± 8.6%
O=P(O)(O)OC1[C@H](O)[C@H](O)C(O)[C@H](O)[C@H]1O (stereo partly drawn) [D-myo-Inositol-1-phosphate (sodium salt)],percent Bodipy-positive cells,[2],12.5 ± 2%
CC[C@H](CO)Nc1nc(NCc2ccccc2O)c2ncn(C(C)C)c2n1 [Olomoucine II],percent Bodipy-positive cells,[3],66.1 ± 7.8%
"CCCCc1c(-c2ccc(O)cc2)[nH]c2nccnc12 [Aloisine A, RP107]",percent Bodipy-positive cells,[3],9.2 ± 2.2%
CCCCC[C@H](O)/C=C/[C@H]1[C@@H]2CO[C@@H](C2)[C@@H]1C/C=C\CCCC(=O)O,percent Bodipy-positive cells,[2],17.3 ± 3.4%
Cc1cc(-c2ccc(/N=N/c3ccc4c(S(=O)(=O)O)cc(S(=O)(=O)O)c(N)c4c3O)c(C)c2)ccc1/N=N/c1ccc2c(S(=O)(=O)O)cc(S(=O)(=O)O)c(N)c2c1O,percent Bodipy-positive cells,[1],15.1 ± 2.1%
Nc1nc(Nc2ccc(S(N)(=O)=O)cc2)nn1C(=S)Nc1c(F)cccc1F [Cdk1/2 Inhibitor III],percent Bodipy-positive cells,[3],92.3 ± 5.3%
C[C@]12CC[C@H](O)CC1=CCC1C2CC[C@]2(C)C(n3cnc4ccccc43)=CCC12 (some centres not stated) [Galeterone],percent Bodipy-positive cells,[1],89.5 ± 1%
Cl.Cl.OCCN1CCN(CCCN2c3ccccc3C=Cc3ccccc32)CC1 [Opipramol dihydrochloride],percent Bodipy-positive cells,[1],91.3 ± 3.1%
N#C/C(=C(/N)Sc1ccccc1N)c1cccc(C(O)c2ccncc2)c1 (configuration not stated) [MEK Inhibitor I],percent Bodipy-positive cells,[3],11.1 ± 1%
CCCN(CCc1ccccc1)C1CCc2c(O)cccc2C1 (configuration not stated) [(?)-PPHT hydrochloride],percent Bodipy-positive cells,[1],91.8 ± 2.1%
Cc1cc(OCc2nnc(SC3CCCC3)n2-c2cccnc2)ccc1-c1ccc(S(C)(=O)=O)cc1,percent Bodipy-positive cells,[3],98.84 ± 0.75%
same,percent Bodipy-positive cells,[1],100%
CNC(=O)c1ccc(C)c(-n2c(C)cc(OCc3ccc(F)cc3F)c(Br)c2=O)c1,percent Bodipy-positive cells,[4],15.8 ± 1.8%
same,percent Bodipy-positive cells,[5],13.1 ± 0.76%
same,percent Bodipy-positive cells,[6],14.2 ± 0.69%
same,percent Bodipy-positive cells,[3],15 ± 2.1%
same,percent Bodipy-positive cells,[1],17.3% and 11.2%
C/C=C/C/C=C/CCC(=O)[C@H]1O[C@H]1C(N)=O [Cerulenin],percent Bodipy-positive cells,[2],8.14 ± 1.9%
same,percent Bodipy-positive cells,library stock concentration: 22.4 mM,99.1 ± 1.3%
CNC(=N)NCCC[C@H](N)C(=O)O [NG-Monomethyl-L-arginine acetate],percent Bodipy-positive cells,[1],27.9 ± 5.2%
CNC(=N)NCCC[C@H](N)C(=O)O,percent Bodipy-positive cells,[1],22.94 ± 0.12%
NC(=O)c1cccc(N)c1 [3-Aminobenzamide],percent Bodipy-positive cells,[3],8.24 ± 3.8%
same,percent Bodipy-positive cells,[1],7.09% and 5.71%
NC(=O)c1cccc(N)c1 [3-aminobenzamide (3-ABA)],percent Bodipy-positive cells,library stock concentration: 36.7 mM,9.24 ± 3.8%
NC(=O)c1cccc(N)c1 [3-aminobenzamide],percent Bodipy-positive cells,[1],45.1 ± 5%
CCCCCCCCCCCC(=O)NC[C@]1(C)CCC[C@]2(C)c3ccc(C(C)C)cc3CCC12 (some centres not stated) [Lauric Acid Leelamide],percent Bodipy-positive cells,[2],11.6 ± 1.1%
Cc1ccc(-n2nc(C(C)(C)C)cc2NC(=O)Nc2ccc(OCCN3CCOCC3)c3ccccc23)cc1 [BIRB 796 (Doramapimod)],percent Bodipy-positive cells,[3],10.1 ± 0.9%
same,percent Bodipy-positive cells,[1],18.9 ± 5.6%
Cc1ccc(-n2nc(C(C)(C)C)cc2NC(=O)Nc2ccc(OCCN3CCOCC3)c3ccccc23)cc1,percent Bodipy-positive cells,[4],15.4 ± 1.6%
same,percent Bodipy-positive cells,[5],21.4 ± 13%
same,percent Bodipy-positive cells,[6],18.5 ± 0.67%
same,percent Bodipy-positive cells,[1],20.3 ± 7.2%
C=CCSCC1Nc2cc(Cl)c(S(N)(=O)=O)cc2S(=O)(=O)N1 (configuration not stated) [Althiazide],percent Bodipy-positive cells,,10.1 ± 1.4%
same,percent Bodipy-positive cells,library stock concentration: 5.2 mM,18.6 ± 6.5%
same,percent Bodipy-positive cells,[1],24.5 ± 3.8%
CCCCCCCCCCCC[N+](C)(C)CCOc1ccccc1 [Domiphen Bromide],percent Bodipy-positive cells,[3],41.7 ± 1.7%
same,percent Bodipy-positive cells,[1],100%
CC(=O)N(CC(O)CN(C(C)=O)c1c(I)c(C(=O)NCC(O)CO)c(I)c(C(=O)NCC(O)CO)c1I)c1c(I)c(C(=O)NCC(O)CO)c(I)c(C(=O)NCC(O)CO)c1I (configuration not stated) [Iodixanol],percent Bodipy-positive cells,,10.2 ± 2.8%
CCCCC[C@H](O)/C=C/[C@H]1OC(O)C[C@H](O)[C@@H]1CCCCCCC(=O)O (some centres not stated) [Thromboxane B1],percent Bodipy-positive cells,[2],17.9 ± 0.35%
O=C(Nc1ccc(I)cc1)NC1CCCCC1,percent Bodipy-positive cells,[1],97.9 ± 2%
"CC[C@H](CO)Nc1nc(NCc2ccc(-c3ccccn3)cc2)c2ncn(C(C)C)c2n1 [CR8, (R)-Isomer]",percent Bodipy-positive cells,[3],26.9 ± 3.4%
CC(C(=O)O)c1ccc(C(=O)c2ccccc2)s1 (configuration not stated) [Tiaprofenic acid],percent Bodipy-positive cells,,22.3 ± 10%
CCCCC[C@H](O)/C=C/C=C\CCCCCCCC(=O)O,percent Bodipy-positive cells,library stock concentration: 100 uM,8.38 ± 7%
NC(=O)NS(=O)(=O)c1ccc(N)cc1,percent Bodipy-positive cells,[1],24.2 ± 3.1%
O=C(O)CCC/C=C\CC1C(O)CC(O)C1/C=C/C(O)COc1cccc(Cl)c1 (configuration not stated),percent Bodipy-positive cells,[1],6.33 ± 1.5%
O=C(O)CCC/C=C\CC1C(O)CC(O)C1/C=C/C(O)COc1cccc(Cl)c1 (configuration not stated) [Cloprostenol],percent Bodipy-positive cells,[2],17 ± 7.2%

# 10 consecutive records from above:
compound,measurement,setting,value
NC(=O)c1cccc(N)c1 [3-aminobenzamide (3-ABA)],percent Bodipy-positive cells,library stock concentration: 36.7 mM,9.24 ± 3.8%
NC(=O)c1cccc(N)c1 [3-aminobenzamide],percent Bodipy-positive cells,[1],45.1 ± 5%
CCCCCCCCCCCC(=O)NC[C@]1(C)CCC[C@]2(C)c3ccc(C(C)C)cc3CCC12 (some centres not stated) [Lauric Acid Leelamide],percent Bodipy-positive cells,[2],11.6 ± 1.1%
Cc1ccc(-n2nc(C(C)(C)C)cc2NC(=O)Nc2ccc(OCCN3CCOCC3)c3ccccc23)cc1 [BIRB 796 (Doramapimod)],percent Bodipy-positive cells,[3],10.1 ± 0.9%
same,percent Bodipy-positive cells,[1],18.9 ± 5.6%
Cc1ccc(-n2nc(C(C)(C)C)cc2NC(=O)Nc2ccc(OCCN3CCOCC3)c3ccccc23)cc1,percent Bodipy-positive cells,[4],15.4 ± 1.6%
same,percent Bodipy-positive cells,[5],21.4 ± 13%
same,percent Bodipy-positive cells,[6],18.5 ± 0.67%
same,percent Bodipy-positive cells,[1],20.3 ± 7.2%
C=CCSCC1Nc2cc(Cl)c(S(N)(=O)=O)cc2S(=O)(=O)N1 (configuration not stated) [Althiazide],percent Bodipy-positive cells,,10.1 ± 1.4%
